Experiment in all cases: kinase-Nluc reporter destabilization hit call (1 = scored as downregulated) (binary); higher = compound decreases kinase abundance
What all share (settings): K562; 2-18 h

Amino acid sequences for entries named in this document (tags omitted). A change or cut given only in a name is not applied to a line headed by its entry.
UniProt P00519, whole entry: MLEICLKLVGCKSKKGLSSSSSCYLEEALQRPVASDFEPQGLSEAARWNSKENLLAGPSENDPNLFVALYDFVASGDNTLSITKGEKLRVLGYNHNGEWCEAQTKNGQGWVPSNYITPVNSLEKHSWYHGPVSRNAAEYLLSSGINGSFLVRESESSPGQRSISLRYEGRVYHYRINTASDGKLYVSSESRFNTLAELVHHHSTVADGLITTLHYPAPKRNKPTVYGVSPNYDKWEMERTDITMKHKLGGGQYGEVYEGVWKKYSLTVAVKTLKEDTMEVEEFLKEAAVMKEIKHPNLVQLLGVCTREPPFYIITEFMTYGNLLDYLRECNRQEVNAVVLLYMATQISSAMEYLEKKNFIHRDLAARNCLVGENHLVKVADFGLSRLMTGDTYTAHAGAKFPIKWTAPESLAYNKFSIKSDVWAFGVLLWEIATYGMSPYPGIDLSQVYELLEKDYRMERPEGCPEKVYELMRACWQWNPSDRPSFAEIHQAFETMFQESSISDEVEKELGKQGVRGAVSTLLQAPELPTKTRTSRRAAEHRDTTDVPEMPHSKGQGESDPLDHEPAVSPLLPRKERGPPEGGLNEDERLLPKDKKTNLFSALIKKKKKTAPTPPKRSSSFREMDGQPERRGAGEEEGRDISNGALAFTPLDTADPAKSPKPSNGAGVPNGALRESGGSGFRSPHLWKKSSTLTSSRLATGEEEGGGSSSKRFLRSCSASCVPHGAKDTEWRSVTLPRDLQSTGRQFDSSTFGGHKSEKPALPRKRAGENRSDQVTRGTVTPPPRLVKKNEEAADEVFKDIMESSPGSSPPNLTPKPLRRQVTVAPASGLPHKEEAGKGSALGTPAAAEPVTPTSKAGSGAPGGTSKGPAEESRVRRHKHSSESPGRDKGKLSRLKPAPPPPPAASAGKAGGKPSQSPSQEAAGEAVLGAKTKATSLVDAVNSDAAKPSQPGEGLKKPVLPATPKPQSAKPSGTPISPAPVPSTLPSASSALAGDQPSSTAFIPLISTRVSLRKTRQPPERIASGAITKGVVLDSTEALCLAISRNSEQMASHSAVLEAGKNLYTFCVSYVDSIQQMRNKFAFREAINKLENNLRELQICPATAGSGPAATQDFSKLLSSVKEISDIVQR
UniProt P31749: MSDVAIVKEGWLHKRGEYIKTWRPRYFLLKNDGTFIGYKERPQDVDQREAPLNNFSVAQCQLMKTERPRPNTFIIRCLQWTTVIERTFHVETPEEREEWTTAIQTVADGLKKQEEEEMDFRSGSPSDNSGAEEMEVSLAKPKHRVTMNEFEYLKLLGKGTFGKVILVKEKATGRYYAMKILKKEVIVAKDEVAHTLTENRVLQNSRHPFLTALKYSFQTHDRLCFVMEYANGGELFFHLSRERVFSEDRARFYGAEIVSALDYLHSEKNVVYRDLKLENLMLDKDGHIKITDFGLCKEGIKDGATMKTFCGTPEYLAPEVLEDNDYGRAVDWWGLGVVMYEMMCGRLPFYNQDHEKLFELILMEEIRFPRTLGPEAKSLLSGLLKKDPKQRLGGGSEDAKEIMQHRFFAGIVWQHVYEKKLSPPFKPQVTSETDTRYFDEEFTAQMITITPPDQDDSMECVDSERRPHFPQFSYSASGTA
UniProt Q9UM73: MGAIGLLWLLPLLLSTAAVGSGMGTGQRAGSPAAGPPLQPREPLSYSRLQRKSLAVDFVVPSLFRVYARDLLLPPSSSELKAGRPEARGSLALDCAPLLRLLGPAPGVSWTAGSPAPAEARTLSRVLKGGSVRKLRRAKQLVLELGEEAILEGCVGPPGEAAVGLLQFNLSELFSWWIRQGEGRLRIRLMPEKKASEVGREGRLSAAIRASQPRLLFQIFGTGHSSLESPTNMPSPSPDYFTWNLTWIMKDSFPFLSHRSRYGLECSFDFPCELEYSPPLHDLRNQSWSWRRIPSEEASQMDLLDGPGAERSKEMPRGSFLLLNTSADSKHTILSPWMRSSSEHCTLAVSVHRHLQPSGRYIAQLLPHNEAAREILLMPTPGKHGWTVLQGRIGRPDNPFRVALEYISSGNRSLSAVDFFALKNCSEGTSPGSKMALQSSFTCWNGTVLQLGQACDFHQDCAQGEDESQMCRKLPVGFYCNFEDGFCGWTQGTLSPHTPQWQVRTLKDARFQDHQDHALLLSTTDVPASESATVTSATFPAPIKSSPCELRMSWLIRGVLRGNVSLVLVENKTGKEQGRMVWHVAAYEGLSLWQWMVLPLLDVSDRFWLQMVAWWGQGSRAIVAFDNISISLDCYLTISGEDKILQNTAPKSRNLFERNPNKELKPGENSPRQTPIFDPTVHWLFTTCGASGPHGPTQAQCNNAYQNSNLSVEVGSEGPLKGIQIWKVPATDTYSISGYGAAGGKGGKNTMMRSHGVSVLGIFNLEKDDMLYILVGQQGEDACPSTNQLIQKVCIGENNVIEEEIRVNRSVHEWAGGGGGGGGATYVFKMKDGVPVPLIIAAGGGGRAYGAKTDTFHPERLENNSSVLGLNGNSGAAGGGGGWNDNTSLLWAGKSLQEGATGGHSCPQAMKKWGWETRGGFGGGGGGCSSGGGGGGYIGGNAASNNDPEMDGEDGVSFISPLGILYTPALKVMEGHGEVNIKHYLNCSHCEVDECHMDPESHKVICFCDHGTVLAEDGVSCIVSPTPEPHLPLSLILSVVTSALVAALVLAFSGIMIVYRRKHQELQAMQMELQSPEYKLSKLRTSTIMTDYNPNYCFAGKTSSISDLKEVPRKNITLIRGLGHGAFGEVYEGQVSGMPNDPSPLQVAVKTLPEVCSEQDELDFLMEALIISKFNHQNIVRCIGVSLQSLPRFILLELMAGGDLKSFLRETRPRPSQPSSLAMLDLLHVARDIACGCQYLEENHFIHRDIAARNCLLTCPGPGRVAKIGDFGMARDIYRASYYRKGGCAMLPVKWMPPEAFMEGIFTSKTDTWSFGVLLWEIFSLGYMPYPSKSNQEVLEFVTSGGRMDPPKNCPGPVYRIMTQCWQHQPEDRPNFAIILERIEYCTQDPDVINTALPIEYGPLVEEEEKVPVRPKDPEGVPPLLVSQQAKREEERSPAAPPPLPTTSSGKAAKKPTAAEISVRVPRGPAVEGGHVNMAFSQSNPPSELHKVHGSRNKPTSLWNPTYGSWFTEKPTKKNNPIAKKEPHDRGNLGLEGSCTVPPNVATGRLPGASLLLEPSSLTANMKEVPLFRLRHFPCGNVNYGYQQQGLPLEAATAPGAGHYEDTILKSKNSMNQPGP
UniProt P10398: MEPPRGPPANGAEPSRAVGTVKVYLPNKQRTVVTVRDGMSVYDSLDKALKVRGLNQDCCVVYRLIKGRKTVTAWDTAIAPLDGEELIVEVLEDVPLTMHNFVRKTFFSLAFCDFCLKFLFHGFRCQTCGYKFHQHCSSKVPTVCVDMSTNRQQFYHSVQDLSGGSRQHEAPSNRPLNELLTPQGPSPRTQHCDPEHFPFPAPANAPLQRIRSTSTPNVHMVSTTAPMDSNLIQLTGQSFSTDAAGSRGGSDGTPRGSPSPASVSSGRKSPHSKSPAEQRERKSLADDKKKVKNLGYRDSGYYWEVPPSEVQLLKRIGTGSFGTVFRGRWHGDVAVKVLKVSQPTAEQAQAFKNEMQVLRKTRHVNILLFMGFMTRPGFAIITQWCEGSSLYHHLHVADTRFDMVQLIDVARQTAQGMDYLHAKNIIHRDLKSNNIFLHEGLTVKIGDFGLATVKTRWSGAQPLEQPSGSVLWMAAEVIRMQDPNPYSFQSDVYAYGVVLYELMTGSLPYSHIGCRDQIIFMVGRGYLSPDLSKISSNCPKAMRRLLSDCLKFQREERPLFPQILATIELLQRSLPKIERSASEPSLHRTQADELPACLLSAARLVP
UniProt O14965: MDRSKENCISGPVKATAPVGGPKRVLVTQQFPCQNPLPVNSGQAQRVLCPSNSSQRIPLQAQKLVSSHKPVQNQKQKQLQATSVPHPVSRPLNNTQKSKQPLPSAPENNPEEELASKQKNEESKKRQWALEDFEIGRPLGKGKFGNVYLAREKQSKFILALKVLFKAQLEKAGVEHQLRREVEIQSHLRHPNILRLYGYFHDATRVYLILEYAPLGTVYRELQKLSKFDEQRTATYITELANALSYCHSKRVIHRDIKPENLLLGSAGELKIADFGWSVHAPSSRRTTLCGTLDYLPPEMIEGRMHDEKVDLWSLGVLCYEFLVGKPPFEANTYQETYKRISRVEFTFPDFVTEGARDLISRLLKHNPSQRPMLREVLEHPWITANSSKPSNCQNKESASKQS
UniProt Q96GD4, whole entry: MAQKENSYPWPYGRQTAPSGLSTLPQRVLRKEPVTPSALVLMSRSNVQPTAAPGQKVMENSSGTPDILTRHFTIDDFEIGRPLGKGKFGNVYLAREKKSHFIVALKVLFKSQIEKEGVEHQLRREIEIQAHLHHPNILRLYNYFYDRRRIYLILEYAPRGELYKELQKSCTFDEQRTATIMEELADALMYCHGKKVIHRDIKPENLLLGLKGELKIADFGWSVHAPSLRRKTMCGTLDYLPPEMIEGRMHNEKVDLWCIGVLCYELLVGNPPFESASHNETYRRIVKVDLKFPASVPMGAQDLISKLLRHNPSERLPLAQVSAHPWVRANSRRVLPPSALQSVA
UniProt Q9UQB9: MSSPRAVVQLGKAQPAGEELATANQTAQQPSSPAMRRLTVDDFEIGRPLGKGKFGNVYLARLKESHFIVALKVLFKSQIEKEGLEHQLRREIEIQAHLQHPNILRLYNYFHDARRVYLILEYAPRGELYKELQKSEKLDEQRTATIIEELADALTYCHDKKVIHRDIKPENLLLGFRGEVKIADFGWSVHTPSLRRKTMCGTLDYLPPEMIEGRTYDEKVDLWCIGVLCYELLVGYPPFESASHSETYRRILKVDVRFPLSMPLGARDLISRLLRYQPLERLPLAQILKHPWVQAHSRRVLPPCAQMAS
UniProt P51813: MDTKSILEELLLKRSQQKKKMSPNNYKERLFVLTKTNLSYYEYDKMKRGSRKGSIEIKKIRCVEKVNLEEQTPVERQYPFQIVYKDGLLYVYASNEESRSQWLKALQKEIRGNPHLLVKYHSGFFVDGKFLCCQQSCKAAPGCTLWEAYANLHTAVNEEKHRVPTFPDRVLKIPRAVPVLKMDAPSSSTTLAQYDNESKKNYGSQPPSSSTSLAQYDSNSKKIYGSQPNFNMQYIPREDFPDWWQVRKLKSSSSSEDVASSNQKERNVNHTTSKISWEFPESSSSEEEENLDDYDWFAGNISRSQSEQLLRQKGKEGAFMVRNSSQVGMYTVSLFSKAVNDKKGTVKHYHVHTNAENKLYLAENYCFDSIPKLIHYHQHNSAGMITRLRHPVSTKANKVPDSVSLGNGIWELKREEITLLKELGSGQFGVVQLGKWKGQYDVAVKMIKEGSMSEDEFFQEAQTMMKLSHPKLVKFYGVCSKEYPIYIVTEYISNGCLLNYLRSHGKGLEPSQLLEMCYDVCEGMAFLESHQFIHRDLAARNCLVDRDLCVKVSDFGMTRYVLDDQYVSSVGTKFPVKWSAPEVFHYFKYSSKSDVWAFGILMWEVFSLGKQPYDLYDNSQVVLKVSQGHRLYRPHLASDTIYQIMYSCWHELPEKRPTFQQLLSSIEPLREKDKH
UniProt P15056, whole entry, looked up: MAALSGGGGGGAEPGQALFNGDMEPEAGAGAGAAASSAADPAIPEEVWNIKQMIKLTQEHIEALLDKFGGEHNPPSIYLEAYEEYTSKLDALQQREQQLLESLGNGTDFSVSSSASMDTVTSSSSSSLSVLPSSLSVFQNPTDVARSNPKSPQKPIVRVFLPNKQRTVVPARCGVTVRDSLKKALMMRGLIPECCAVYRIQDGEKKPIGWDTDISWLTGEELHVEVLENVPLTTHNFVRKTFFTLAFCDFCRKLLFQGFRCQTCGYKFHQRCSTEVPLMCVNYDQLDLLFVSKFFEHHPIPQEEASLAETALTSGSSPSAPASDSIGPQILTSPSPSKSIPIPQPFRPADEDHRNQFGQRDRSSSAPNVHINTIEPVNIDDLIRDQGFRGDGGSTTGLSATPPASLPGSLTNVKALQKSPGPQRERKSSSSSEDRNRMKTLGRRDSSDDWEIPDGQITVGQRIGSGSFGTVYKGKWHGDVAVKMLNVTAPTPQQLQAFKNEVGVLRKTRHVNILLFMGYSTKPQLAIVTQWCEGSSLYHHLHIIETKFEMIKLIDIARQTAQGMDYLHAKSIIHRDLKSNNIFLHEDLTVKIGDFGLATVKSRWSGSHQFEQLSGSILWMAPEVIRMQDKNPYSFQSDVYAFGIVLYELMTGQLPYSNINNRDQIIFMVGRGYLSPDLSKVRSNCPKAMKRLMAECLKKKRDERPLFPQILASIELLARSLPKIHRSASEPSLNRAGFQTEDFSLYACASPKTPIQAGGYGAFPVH

The target of assay [1] is ABL1 (UniProt P00519).
Assay [2] has as its target AKT1 (UniProt P31749).
Assay [3] concerns the target ALK (UniProt Q9UM73).
Assay [4] concerns the target ARAF (UniProt P10398).
The target in assay [5] is AURKA (UniProt O14965).
Assay [6] deals with AURKB (UniProt Q96GD4).
The target in assay [7] is AURKC (UniProt Q9UQB9).
The target in assay [8] is BLK (UniProt P51451).
For assay [9], the target named is BMX (UniProt P51813).
The target in assay [10] is BRAF (UniProt P15056).

Where a name gives a salt, the structure may show the parent alone. This is one part of the list. The calls rarely recur for the same compound in another form.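 Kinases were expressed as nanoluciferase fusions in K562 cells and luminescence was read every 4 h between 2 and 18 h as percent of control, DMSO set to 100% and a positive control to 0%. A time point counts as decreased when the signal drops significantly (2 sigma). The hit call is the authors' own, does not follow from the count of time points alone, and its rule is not shown.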

On to `CN(C)C(=O)c1cc2cnc(Nc3ccc(NC(=O)C4(C(=O)Nc5ccc(F)cc5)CC4)cc3)nc2n1C1CCCC1` (2 µM), for which the “kinase-Nluc reporter destabilization hit call” value in [1], in assay [2], in assay [3], in assay [4], in [5] and in assay [6] was inactive: 0 throughout. The “kinase-Nluc reporter destabilization hit call” value in [7], in assay [8], in [9] and in assay [10] was inactive: 0 in each case.
With `O=C(Nc1ncc(SCCN2CCCC2)s1)[C@]1(c2ccc(S(=O)(=O)C3CC3)cc2)C[C@H]1C1CCCCC1` [Globalagliatin] (2.5 µM), the “kinase-Nluc reporter destabilization hit call” value in assay [1], in assay [2], in [3], in assay [4], in [5] and in assay [6] was inactive: 0 each time. The “kinase-Nluc reporter destabilization hit call” value in [7], in assay [8], in [9] and in assay [10] was inactive: 0 in each case.
As for `CC(C)(O)c1cc2nc(-c3cnc(N)nc3)nc(N3CCOCC3)c2s1` (2.5 µM), the “kinase-Nluc reporter destabilization hit call” value is active: 1 in assay [1]; inactive: 0 in assay [2]; inactive: 0 in [3]; inactive: 0 in assay [4]; inactive: 0 in assay [5]; inactive: 0 in assay [6]. The “kinase-Nluc reporter destabilization hit call” value in assay [7], in [8], in [9] and in assay [10] was inactive: 0 in each case.
For the compound `CC[C@@H]1CN(C(=O)NCC(F)(F)F)C[C@@H]1c1cnc2cnc3[nH]ccc3n12` [Upadacitinib] (10 µM), the “kinase-Nluc reporter destabilization hit call” value in assay [1], in [2], in assay [3], in assay [4], in [5] and in [6] was inactive: 0 each time. In addition, the “kinase-Nluc reporter destabilization hit call” value in assay [7], in assay [8], in assay [9] and in [10] was inactive: 0 in each case.
Turning to `O=C(O)/C=C/c1cc(Br)c(Br)c(Br)c1Br` (10 µM), the “kinase-Nluc reporter destabilization hit call” value in assay [1], in assay [2], in assay [3], in assay [4], in assay [5] and in [6] was inactive: 0 in each case. For the same compound, the “kinase-Nluc reporter destabilization hit call” value in [7], in [8], in assay [9] and in assay [10] was inactive: 0 throughout.
On to `C[C@]1(O)C[C@@](N)(c2ccc(-c3nc4n(c3-c3ccccc3)COc3ccncc3-4)cc2)C1` [TAS-117 (hydrochloride)] (10 µM), for which the “kinase-Nluc reporter destabilization hit call” value in assay [1], in assay [2], in [3], in assay [4], in [5] and in [6] was inactive: 0 throughout. Moreover, the “kinase-Nluc reporter destabilization hit call” value in [7], in assay [8], in assay [9] and in [10] was inactive: 0 in each case.
Regarding `CC(C)=CCC/C(C)=C/CC/C(C)=C/CSc1ccccc1C(=O)O` [Salirasib] (10 µM), the “kinase-Nluc reporter destabilization hit call” value in assay [1], in assay [2], in assay [3], in assay [4], in assay [5] and in [6] was inactive: 0 each time. For the same compound, the “kinase-Nluc reporter destabilization hit call” value in assay [7], in assay [8], in assay [9] and in assay [10] was inactive: 0 each time.

For the origin of these results see the supplement of paper PMC12823440, “Inhibitors supercharge kinase turnover through native proteolytic circuits” (Nature, 2025).
